Data taken from patent publication US5639793A, “Mammalian DNA topoisomerase II inhibitor and method” (The University of North Carolina at Chapel Hill, priority 1995, dated 1997).
Like-named read-outs stand apart in the source and are kept apart here.

How the values were obtained:
[1] = tested on: human osteogenic sarcoma (HOS) cells; assay: HOS cell growth inhibition (antiproliferative activity); type: cell-based; details: read-out: EC50, HOS cell replication
Procedure: (§1) Additionally, baby hamster kidney (BHK) cell growth inhibition by these derivatives was investigated.
(§2) Cell growth inhibition assays were performed according to published procedures (Crumpton).
(§3) The HOS cell growth inhibition assays were done according to a published procedure (Crumpton). All cells were grown in Eagle's minimium essential medium supplemented with 10% fetal bovine serum. Flasks were seeded at a density of 1×10^3 cell/cm^2 for monolayer cultures or 2×10^4 /ml for suspension cultures. Suspension cultures were used immediately for drug addition after dilution to a suitable starting density, and, about 24 hours after seeding, the compounds to be tested were added to the monolayer cultures. […] Control flasks also contained 0.1% DMSO.
(§4) Colonies of about 50 or more cells were counted and the plating efficiency was calculated as the per cent cells that were able to form colonies (Goz).

[2] = tested on: baby hamster kidney (BHK) cells; assay: BHK cell growth inhibition; type: cell-based
Procedure: as §1, §2, §3, §4

[3] = tested on: HOS cells resistant to colchicine (HOS colR), expressing p170 glycoprotein; assay: HOS colR cell growth inhibition; type: cell-based, human
Procedure: as §2, §3, §4

Work on COc1cc2c(c(OC)c1OC)-c1ccc(OC)c(=O)cc1[C@@H](NC(C)=O)CC2 [Colchicine, colchicine, reference compound] yielded an EC50 [1] of 0.00825 ± 0.00075 µM, an EC50 ([2]; Table 1, read-out: BHK--EC50) of 5 µM and an EC50 ([2]; read-out: EC50, BHK growth inhibition) of 5 µM. For the same compound, the EC50 ([3]; HOS colR cells) was 315 µM and the “EC50 for HOS colR cells compared with HOS cells” value ([3]; HOS colR versus HOS not expressing p170) was “several orders of magnitude higher”.
